Reference: PubChem BioAssay AID1508588 (Peter MacCallum Cancer Centre, 2020)
In all, the deposit lists about 18,000 reagents; shown is a random part of them. 790 of all reagents (4.4%) count as active. 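Calls rest on a combination of fold-change classes in drug and vehicle arms, not all shown here.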 Entries without a mark were called inactive. No sequences are given here.

Purpose: 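Which gene losses make BRAF-mutant melanoma cells more responsive to vemurafenib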 (primary screen)
System: human WM266.4 melanoma cells (BRAF V600 mutant)
Knock-down reagent: siRNA pool against human genes, 40 nM
Duration: 96 h from transfection to read-out
Treatment: vemurafenib 300 nM (about IC25), added 48 h after transfection, for 48 h; comparison arm got DMSO vehicle only
Detection: 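Cell gain (DAPI nuclei at end minus before drug, mean of two replicates) and medium lactate by absorbance per cell, both as ratio to non-targeting siRNA, also grouped into fold-change classes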
Scale: cell gain with vemurafenib: higher = more cell gain than with non-targeting siRNA; lactate per cell with vemurafenib: higher = more lactate made per cell
Call rule: 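a knock-down counts as enhancing when its fold-change classes with vehicle and with vemurafenib, taken together, show a stronger drug effect on cell gain or lactate per cell; exact class pairs not stated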
Meaning of the calls: active = enhances vemurafenib effect; inactive = no enhancement seen

The opening 7 records as a preview:
Target gene	cell gain with vemurafenib	lactate per cell with vemurafenib
PLK1 (polo like kinase 1)	-0.11	3.29
SH3D19 (SH3 domain containing 19)	0.4	0.95
RBM33 (RNA binding motif protein 33)	0.61	1.43
LMTK2 (lemur tail kinase 2)	0.75	0.66
PIP4K2A (phosphatidylinositol-5-phosphate 4-kinase type 2 alpha)	0.77	1.48
ZNF747 (zinc finger protein 747)	0.24	1.03
SI (sucrase-isomaltase)	0.45	1.35

Results, from the first entry:
Target gene	cell gain with vemurafenib	lactate per cell with vemurafenib
PLK1 (polo like kinase 1)	-0.11	3.29
SH3D19 (SH3 domain containing 19)	0.4	0.95
RBM33 (RNA binding motif protein 33)	0.61	1.43
LMTK2 (lemur tail kinase 2)	0.75	0.66
PIP4K2A (phosphatidylinositol-5-phosphate 4-kinase type 2 alpha)	0.77	1.48
ZNF747 (zinc finger protein 747)	0.24	1.03
SI (sucrase-isomaltase)	0.45	1.35
ARL5A (ARF like GTPase 5A)	0.92	0.53
RIT2 (Ras like without CAAX 2)	0.97	0.55
SERHL2 (serine hydrolase like 2)	0.66	0.8
KISS1R (KISS1 receptor)	0.76	0.95
UBE2V2 (ubiquitin conjugating enzyme E2 V2)	0.7	0.84
RTL3 (retrotransposon Gag like 3)	0.04	4.04
ZNF224 (zinc finger protein 224)	0.49	1.41
GOLGA1 (golgin A1)	0.68	0.86
PRAMEF6 (PRAME family member 6)	0.15	0.6
PSG2 (pregnancy specific beta-1-glycoprotein 2)	0.43	0.82
FCRLA (Fc receptor like A)	0.54	1.46
TMEM196 (transmembrane protein 196)	1.16	0.38
DACT1 (dishevelled binding antagonist of beta catenin 1)	0.69	1.24
VSIG8 (V-set and immunoglobulin domain containing 8)	0.79	1.06
TMEM201 (transmembrane protein 201)	0.92	0.68
PLXNB3 (plexin B3)	0.78	0.32
GPR42 (G protein-coupled receptor 42)	0.55	1.86
COPA (coat protein complex I subunit alpha)	-0.07	1.36
CLPB (ClpB family mitochondrial disaggregase)	0.72	1.01
PRAME (PRAME nuclear receptor transcriptional regulator)	0.72	0.9
SETD9 (SET domain containing 9)	0.44	0.66
NAALADL1 (N-acetylated alpha-linked acidic dipeptidase like 1)	0.52	0.86
NELL2 (neural EGFL like 2)	0.63	0.52
TMEM161A (transmembrane protein 161A)	1.04	0.7
MAZ (MYC associated zinc finger protein)	0.51	1.84
SH3RF1 (SH3 domain containing ring finger 1)	0.75	1.27
GJB1 (gap junction protein beta 1)	0.33	1.15
LYZ (lysozyme)	0.38	1.36
PLCD3 (phospholipase C delta 3)	0.36	1.04
SFR1 (SWI5 dependent homologous recombination repair protein 1)	0.24	2.21
MLNR (motilin receptor)	0.06	1.25
SERPINA1 (serpin family A member 1)	0.7	0.86
UQCRC2 (ubiquinol-cytochrome c reductase core protein 2)	0.56	1.66
COL11A1 (collagen type XI alpha 1 chain)	0.26	1.31
MXD4 (MAX dimerization protein 4)	0.95	0.54
CTAG1B (cancer/testis antigen 1B)	0.17	1.17
CAB39 (calcium binding protein 39)	0.67	1.32
ACSF2 (acyl-CoA synthetase family member 2)	0.29	1.71
LY6E (lymphocyte antigen 6 family member E)	0.63	0.98
FAM149A (family with sequence similarity 149 member A)	0.81	1.63
SETMAR (SET and mariner transposase domain methyltransferase)	0.81	0.76
PPP3R2 (protein phosphatase 3 regulatory subunit B, beta)	1.03	1.32
RGL3 (ral guanine nucleotide dissociation stimulator like 3)	0.1	0.53
NEDD9	0.71	1.29
PSCA (prostate stem cell antigen)	-0.15	1.09
LPAR1 (lysophosphatidic acid receptor 1)	1.42	0.99
CSNK1D (casein kinase 1 delta)	0.61	0.64
TMEM187 (transmembrane protein 187)	0.58	1.15
KRTAP6-1 (keratin associated protein 6-1)	0.71	0.56
VPS18 (VPS18 core subunit of CORVET and HOPS complexes)	0.67	0.8
MRPL41 (mitochondrial ribosomal protein L41)	0.31	2.02
LTN1 (listerin E3 ubiquitin protein ligase 1)	1.03	0.86
IFIT5 (interferon induced protein with tetratricopeptide repeats 5)	0.58	0.74
CALR3 (calreticulin 3)	0.59	0.74
BEND3 (BEN domain containing 3)	0.8	0.91
SYT12 (synaptotagmin 12)	0.74	1.15
APOBR (apolipoprotein B receptor)	0.29	1.55
SCGB1A1 (secretoglobin family 1A member 1)	0.45	1.14
CTSC (cathepsin C)	0.31	0.94
TMEM115 (transmembrane protein 115)	0.64	0.86
ASB14 (ankyrin repeat and SOCS box containing 14)	0.31	1.44
PPP1CC (protein phosphatase 1 catalytic subunit gamma)	0.71	1.12
OR5D14 (olfactory receptor family 5 subfamily D member 14)	0.41	0.61
BPIFA2 (BPI fold containing family A member 2)	0.33	2
CT47A4 (cancer/testis antigen family 47 member A4)	0.9	0.52
CAMSAP3	0.41	1.22
SMG1	0.06	1.36
H3C10 (H3 clustered histone 10)	0.46	1.17
PIWIL3 (piwi like RNA-mediated gene silencing 3)	0.46	1.9
PRB2 (proline rich protein BstNI subfamily 2)	0.98	1
SDC1 (syndecan 1)	0.12	0.28
DHX32 (DEAH-box helicase 32 (putative))	0.21	1.06
RAB20 (RAB20, member RAS oncogene family)	0.61	0.42
DAND5 (DAN domain BMP antagonist family member 5)	0.38	2
CD72 (CD72 molecule)	1.46	0.8
SIDT1 (SID1 transmembrane family member 1)	0.59	0.98
KRTAP5-1 (keratin associated protein 5-1)	0.71	0.93
